Φf data for three compounds are collected here from publication PMC12518693, “Potent Fluorescent Probe for Target‐Engagement Studies of Allosteric Pyruvate Kinase Modulators” (Angewandte Chemie (International Ed. in English), 2025).

Several values for one entry are separate records, joined by “and”; a condition that tells them apart may be missing. Identical values can stand only once.

The data set can be described thus: Spectroscopic properties (UV-vis fluorescence spectroscopy). Format: physicochemical. Particulars: excitation at 420 nm.

Regarding `CN(C)c1ccc(S(=O)(=O)c2ccc3c(=O)n(Cc4ccccc4)ncc3c2)c2nonc12` [Compound II, 2-Benzyl-6-((7-(dimethylamino)benzo[c][1,2,5]oxadiazol-4-yl)sulfonyl)phthalazin-1(2H)-one], the Φf (MeCN) was 5.6%.

Compound `CN(C)c1ccc(S(=O)(=O)c2ccc3c(=O)n(CC(C)(C)C)ncc3c2)c2nonc12` [Compound III, 6-((7-(Dimethylamino)benzo[c][1,2,5]oxadiazol-4-yl)sulfonyl)-2-neopentylphthalazin-1(2H)-one] had a Φf (MeCN) of 5.3%. Consider `CN(C)c1ccc(S(=O)(=O)c2ccc3c(=O)n(Cc4cc[nH]n4)ncc3c2)c2nonc12` [Compound IV, 2-((1H-Pyrazol-3-yl)methyl)-6-((7-(dimethylamino)benzo[c][1,2,5]oxadiazol-4-yl)sulfonyl)phthalazin-1(2H)-one], for which the Φf is, setting by setting: (MeCN) 1.5% and 5.3%; (Tris-HCl buffer) 5.3% and 1.5%.
